# Values from PubChem BioAssay AID1224830 (NIAID, 2016).
# Test: 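Genes whose knock-down alters the TNF-alpha reporter response to LPS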 (primary screen)
# System: human THP-1 monocytic leukaemia cells, TNF dual-luciferase reporter clone, PMA-differentiated to macrophage-like cells
# Reagent: siRNA pool against human genes, 50 nM
# Timing: LPS for 4 h, given about 3 days after siRNA transfection
# Treatment: bacterial LPS (TLR4 ligand), 10 ng/ml
# Detection: 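Ratio of firefly to renilla light, scaled to the plate median and expressed as a robust z-score per replicate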
# Scale: TNF reporter robust z-score: higher = stronger TNF reporter response to LPS
# Rule for the call: 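Each well counts as active if its z-score is over 2.8 or under -1.5; controls are left without a call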
# The deposit covers about 18,000 reagents; this is a part drawn at random. About 2,900 of them (16%) were called active. 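Calls are made per well; low scores hint the gene aids the LPS response, high scores that it dampens it.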 Unmarked entries are inactive. Repeated entries: four replicate wells of each siRNA pool.
target gene,TNF reporter robust z-score
MOCS3 (molybdenum cofactor synthesis 3),-1.17
MOCS3 (molybdenum cofactor synthesis 3),-0.02
MOCS3 (molybdenum cofactor synthesis 3),0.13
MOCS3 (molybdenum cofactor synthesis 3),0.21
MXRA8 (matrix remodeling associated 8),0.38
MXRA8 (matrix remodeling associated 8),0.67
MXRA8 (matrix remodeling associated 8),-0.79
MXRA8 (matrix remodeling associated 8),0.9
HTR2B (5-hydroxytryptamine receptor 2B),-0.53
HTR2B (5-hydroxytryptamine receptor 2B),0.92
HTR2B (5-hydroxytryptamine receptor 2B),0.65
HTR2B (5-hydroxytryptamine receptor 2B),0.95
H3C15 (H3 clustered histone 15),-0.55
H3C15 (H3 clustered histone 15),-1.13
H3C15 (H3 clustered histone 15),0.01
H3C15 (H3 clustered histone 15),-0.12
GGN (gametogenetin),-0.96
GGN (gametogenetin),-0.56
GGN (gametogenetin),-0.3
GGN (gametogenetin),-0.55
NUDCD2 (NudC domain containing 2),-0.05
NUDCD2 (NudC domain containing 2),-0.54
NUDCD2 (NudC domain containing 2),0.2
NUDCD2 (NudC domain containing 2),0.08
BEX1 (brain expressed X-linked 1),0.62
BEX1 (brain expressed X-linked 1),1.06
BEX1 (brain expressed X-linked 1),0.59
BEX1 (brain expressed X-linked 1),1.49
FBXO46 (F-box protein 46),4.05 (active)
FBXO46 (F-box protein 46),1.28
FBXO46 (F-box protein 46),7.93 (active)
FBXO46 (F-box protein 46),0.47
PABIR1,-0.28
PABIR1,0.53
PABIR1,-0.2
PABIR1,0.45
DIPK1A (divergent protein kinase domain 1A),-0.12
DIPK1A (divergent protein kinase domain 1A),0.19
DIPK1A (divergent protein kinase domain 1A),-1.01
DIPK1A (divergent protein kinase domain 1A),0
ECM1 (extracellular matrix protein 1),-0.86
ECM1 (extracellular matrix protein 1),-0.82
ECM1 (extracellular matrix protein 1),-1.03
DLX5 (distal-less homeobox 5),0.91
DLX5 (distal-less homeobox 5),0.23
DLX5 (distal-less homeobox 5),-0.41
DLX5 (distal-less homeobox 5),1.49
CDIN1 (CDAN1 interacting nuclease 1),-0.09
CDIN1 (CDAN1 interacting nuclease 1),-1.5
CDIN1 (CDAN1 interacting nuclease 1),-1.19
CDIN1 (CDAN1 interacting nuclease 1),0.03
"GTF2H2C_2 (GTF2H2 family member C, copy 2)",-0.54
"GTF2H2C_2 (GTF2H2 family member C, copy 2)",-0.3
"GTF2H2C_2 (GTF2H2 family member C, copy 2)",-0.48
"GTF2H2C_2 (GTF2H2 family member C, copy 2)",-0.81
CERT1 (ceramide transporter 1),1.02
CERT1 (ceramide transporter 1),2.9 (active)
CERT1 (ceramide transporter 1),0.67
CERT1 (ceramide transporter 1),0.48
PXDNL (peroxidasin like),-1.32
PXDNL (peroxidasin like),-1.42
PXDNL (peroxidasin like),-1.14
PXDNL (peroxidasin like),-0.45
HAUS3 (HAUS augmin like complex subunit 3),0.03
HAUS3 (HAUS augmin like complex subunit 3),-0.06
HAUS3 (HAUS augmin like complex subunit 3),0.25
SSTR5 (somatostatin receptor 5),-0.25
SSTR5 (somatostatin receptor 5),-0.17
SSTR5 (somatostatin receptor 5),-0.49
SSTR5 (somatostatin receptor 5),0.76
RASA1 (RAS p21 protein activator 1),-1.1
RASA1 (RAS p21 protein activator 1),-0.86
RASA1 (RAS p21 protein activator 1),-0.66
RASA1 (RAS p21 protein activator 1),-0.32
ARX (aristaless related homeobox),-1.41
ARX (aristaless related homeobox),-0.69
ARX (aristaless related homeobox),-1.05
ARX (aristaless related homeobox),-0.32
PKDREJ (polycystin family receptor for egg jelly),-1.15
PKDREJ (polycystin family receptor for egg jelly),0.99
PKDREJ (polycystin family receptor for egg jelly),0.24
PKDREJ (polycystin family receptor for egg jelly),1.03
CCDC18 (coiled-coil domain containing 18),1.14
CCDC18 (coiled-coil domain containing 18),1.15
CCDC18 (coiled-coil domain containing 18),1.29
CCDC18 (coiled-coil domain containing 18),1.77
MMP12 (matrix metallopeptidase 12),1.29
MMP12 (matrix metallopeptidase 12),1.78
MMP12 (matrix metallopeptidase 12),0.85
MMP12 (matrix metallopeptidase 12),2.2
PGF (placental growth factor),0.9
PGF (placental growth factor),0.59
PGF (placental growth factor),0.2
PGF (placental growth factor),-1.15
SCAMP5,-0.82
SCAMP5,-0.42
SCAMP5,-0.52
SCAMP5,-0.25
ZNF185 (zinc finger protein 185 with LIM domain),1.55
ZNF185 (zinc finger protein 185 with LIM domain),0.44
ZNF185 (zinc finger protein 185 with LIM domain),-0.18
ZNF185 (zinc finger protein 185 with LIM domain),-1.19
CLBA1 (clathrin binding box of aftiphilin containing 1),-0.72
CLBA1 (clathrin binding box of aftiphilin containing 1),-1
CLBA1 (clathrin binding box of aftiphilin containing 1),-0.28
CLBA1 (clathrin binding box of aftiphilin containing 1),-0.6
RPS10 (ribosomal protein S10),0.23
RPS10 (ribosomal protein S10),-0.11
RPS10 (ribosomal protein S10),-0.72
RPS10 (ribosomal protein S10),-0.29

6 neighbouring entries already listed, for reference:
target gene,TNF reporter robust z-score
PGF (placental growth factor),0.2
PGF (placental growth factor),-1.15
SCAMP5,-0.82
SCAMP5,-0.42
SCAMP5,-0.52
SCAMP5,-0.25
